# In publication PMC7237486:
# By UniProt entry, the sequences of proteins in these tests, tags left out.
# UniProt Q9UQF2: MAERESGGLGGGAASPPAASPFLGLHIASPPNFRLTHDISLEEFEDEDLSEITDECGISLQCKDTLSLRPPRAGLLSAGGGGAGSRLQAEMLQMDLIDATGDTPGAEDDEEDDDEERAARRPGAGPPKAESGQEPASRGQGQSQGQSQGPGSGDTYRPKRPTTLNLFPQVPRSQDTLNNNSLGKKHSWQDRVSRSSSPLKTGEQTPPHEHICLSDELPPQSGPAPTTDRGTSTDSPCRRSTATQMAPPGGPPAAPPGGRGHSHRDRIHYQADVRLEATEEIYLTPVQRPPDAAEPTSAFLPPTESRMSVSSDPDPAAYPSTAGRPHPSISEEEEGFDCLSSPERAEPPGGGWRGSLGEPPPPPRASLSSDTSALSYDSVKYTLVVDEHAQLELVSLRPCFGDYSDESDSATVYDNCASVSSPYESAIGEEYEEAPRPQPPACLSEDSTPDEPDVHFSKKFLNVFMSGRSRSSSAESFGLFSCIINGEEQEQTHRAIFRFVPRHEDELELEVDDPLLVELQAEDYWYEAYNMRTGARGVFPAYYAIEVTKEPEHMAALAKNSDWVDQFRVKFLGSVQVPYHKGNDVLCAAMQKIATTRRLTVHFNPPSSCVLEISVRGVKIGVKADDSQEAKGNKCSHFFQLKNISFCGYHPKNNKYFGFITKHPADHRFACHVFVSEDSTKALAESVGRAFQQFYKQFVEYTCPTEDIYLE
# UniProt O14733: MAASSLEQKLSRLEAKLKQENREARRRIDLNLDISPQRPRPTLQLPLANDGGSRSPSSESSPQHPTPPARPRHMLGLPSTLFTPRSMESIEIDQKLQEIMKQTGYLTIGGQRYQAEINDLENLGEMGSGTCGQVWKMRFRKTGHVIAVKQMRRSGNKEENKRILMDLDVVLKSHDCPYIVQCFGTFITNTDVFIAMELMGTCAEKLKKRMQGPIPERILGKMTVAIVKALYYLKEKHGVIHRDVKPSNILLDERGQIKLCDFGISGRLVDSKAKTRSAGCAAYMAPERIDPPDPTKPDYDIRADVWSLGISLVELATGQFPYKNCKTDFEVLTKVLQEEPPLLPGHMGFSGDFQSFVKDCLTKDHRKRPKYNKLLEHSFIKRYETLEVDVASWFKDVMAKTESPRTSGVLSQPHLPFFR
# Results are given in words; binding and its absence hold for the method and conditions named. In cells and extracts the contact can be indirect. Some entries that bind do so weakly or less than the wild type.
# T1: SH3RF3 (SH3 domain containing ring finger 3) (UniProt Q8TEJ3)
# T1 sequence: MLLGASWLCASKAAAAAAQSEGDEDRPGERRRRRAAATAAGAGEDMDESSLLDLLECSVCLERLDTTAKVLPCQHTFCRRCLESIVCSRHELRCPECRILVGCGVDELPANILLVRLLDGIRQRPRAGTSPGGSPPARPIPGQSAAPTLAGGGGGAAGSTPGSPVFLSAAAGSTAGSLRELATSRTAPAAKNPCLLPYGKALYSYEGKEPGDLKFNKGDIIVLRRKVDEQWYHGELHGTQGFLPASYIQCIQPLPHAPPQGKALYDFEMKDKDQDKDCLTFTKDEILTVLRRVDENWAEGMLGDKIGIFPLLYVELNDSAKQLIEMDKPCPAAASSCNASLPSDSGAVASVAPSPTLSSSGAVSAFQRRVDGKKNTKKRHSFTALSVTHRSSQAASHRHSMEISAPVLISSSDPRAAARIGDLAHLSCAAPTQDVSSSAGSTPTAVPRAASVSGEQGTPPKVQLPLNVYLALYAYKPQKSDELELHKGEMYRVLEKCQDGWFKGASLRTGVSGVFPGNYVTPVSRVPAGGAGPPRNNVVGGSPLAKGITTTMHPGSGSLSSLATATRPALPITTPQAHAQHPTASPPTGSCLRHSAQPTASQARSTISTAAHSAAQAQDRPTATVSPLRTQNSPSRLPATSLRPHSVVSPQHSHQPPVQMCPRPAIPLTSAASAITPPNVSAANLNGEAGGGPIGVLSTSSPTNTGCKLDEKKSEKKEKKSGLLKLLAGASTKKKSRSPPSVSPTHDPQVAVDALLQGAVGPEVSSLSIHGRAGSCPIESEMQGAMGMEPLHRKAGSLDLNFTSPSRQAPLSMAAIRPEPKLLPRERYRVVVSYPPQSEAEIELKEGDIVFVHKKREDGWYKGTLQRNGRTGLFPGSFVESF
# T2: JIP3 (UniProt Q9UPT6)
# T2 sequence: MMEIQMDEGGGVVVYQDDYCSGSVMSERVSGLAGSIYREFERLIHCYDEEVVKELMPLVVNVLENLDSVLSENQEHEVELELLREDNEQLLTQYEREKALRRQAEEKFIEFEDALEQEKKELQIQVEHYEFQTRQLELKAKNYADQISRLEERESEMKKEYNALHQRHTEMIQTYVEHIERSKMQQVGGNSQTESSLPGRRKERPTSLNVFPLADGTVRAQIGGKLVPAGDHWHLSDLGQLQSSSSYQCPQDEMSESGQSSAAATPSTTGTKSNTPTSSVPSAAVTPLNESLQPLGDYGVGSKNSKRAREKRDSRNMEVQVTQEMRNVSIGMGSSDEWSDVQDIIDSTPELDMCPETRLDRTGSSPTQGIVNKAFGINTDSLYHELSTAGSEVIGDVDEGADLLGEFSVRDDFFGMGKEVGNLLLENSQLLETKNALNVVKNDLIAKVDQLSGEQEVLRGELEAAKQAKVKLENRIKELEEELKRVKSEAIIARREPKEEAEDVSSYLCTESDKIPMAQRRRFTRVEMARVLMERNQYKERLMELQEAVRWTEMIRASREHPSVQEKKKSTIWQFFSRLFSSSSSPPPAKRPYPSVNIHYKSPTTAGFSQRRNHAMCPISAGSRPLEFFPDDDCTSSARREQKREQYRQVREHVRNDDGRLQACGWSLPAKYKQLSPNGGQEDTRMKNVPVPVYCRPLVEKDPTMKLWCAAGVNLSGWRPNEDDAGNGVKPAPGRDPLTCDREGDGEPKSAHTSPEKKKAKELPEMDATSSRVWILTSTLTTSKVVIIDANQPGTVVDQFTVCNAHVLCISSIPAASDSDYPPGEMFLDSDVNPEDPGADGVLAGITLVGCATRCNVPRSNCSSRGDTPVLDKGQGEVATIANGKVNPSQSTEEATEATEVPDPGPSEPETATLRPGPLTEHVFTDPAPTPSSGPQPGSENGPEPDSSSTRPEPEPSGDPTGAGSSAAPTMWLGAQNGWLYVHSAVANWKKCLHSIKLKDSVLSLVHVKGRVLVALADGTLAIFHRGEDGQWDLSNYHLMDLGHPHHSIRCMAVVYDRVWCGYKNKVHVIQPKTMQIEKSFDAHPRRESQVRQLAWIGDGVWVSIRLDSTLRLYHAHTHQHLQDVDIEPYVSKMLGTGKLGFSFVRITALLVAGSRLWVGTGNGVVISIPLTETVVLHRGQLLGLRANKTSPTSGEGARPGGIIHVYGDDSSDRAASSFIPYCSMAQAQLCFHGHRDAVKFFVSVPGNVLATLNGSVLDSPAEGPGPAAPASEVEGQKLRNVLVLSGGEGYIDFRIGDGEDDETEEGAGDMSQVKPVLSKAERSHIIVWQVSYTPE
# T3: JIP3 in MCF10AT cells (human (endogenous in MCF10AT)) (UniProt Q9UPT6)
# T3 sequence: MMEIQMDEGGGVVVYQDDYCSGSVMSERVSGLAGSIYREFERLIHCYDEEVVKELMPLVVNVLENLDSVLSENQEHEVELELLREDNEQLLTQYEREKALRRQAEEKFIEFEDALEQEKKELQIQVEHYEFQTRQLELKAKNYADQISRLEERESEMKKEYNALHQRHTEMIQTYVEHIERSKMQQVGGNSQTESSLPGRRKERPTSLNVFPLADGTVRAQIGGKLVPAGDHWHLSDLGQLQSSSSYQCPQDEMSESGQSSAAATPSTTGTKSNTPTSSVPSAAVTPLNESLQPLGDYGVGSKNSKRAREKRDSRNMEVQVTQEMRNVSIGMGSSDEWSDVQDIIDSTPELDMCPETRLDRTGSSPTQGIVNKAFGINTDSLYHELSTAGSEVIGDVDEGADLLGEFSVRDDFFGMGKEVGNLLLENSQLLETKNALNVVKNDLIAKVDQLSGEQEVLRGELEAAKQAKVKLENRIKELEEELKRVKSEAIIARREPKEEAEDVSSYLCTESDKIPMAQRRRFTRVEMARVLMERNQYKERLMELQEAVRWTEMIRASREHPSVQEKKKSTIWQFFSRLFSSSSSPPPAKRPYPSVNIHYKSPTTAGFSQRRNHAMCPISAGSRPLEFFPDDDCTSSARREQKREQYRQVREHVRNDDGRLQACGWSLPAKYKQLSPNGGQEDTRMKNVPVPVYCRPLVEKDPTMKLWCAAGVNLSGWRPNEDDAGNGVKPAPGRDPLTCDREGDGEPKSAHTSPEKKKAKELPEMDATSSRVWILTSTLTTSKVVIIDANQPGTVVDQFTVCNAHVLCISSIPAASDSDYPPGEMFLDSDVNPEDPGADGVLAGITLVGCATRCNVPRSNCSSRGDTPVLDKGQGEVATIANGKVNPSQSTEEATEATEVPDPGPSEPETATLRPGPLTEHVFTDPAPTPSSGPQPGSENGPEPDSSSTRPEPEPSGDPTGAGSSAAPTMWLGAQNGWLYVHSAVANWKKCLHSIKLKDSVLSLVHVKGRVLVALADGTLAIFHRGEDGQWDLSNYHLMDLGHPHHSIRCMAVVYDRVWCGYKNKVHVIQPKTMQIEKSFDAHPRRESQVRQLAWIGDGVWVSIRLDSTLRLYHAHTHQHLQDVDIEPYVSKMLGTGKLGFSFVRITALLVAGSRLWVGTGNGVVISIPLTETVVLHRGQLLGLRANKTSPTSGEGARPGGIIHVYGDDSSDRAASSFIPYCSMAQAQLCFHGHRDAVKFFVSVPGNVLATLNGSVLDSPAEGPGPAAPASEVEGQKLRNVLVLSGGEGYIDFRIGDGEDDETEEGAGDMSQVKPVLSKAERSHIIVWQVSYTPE
# What was measured:
# [1] = molecular target: T1, SH3RF3 (SH3 domain containing ring finger 3); experiment: co-IP; 293T cells transfected with overexpression plasmids 48 h before; lysate with control IgG or immunoprecipitating antibody overnight at 4 °C, protein A/G agarose beads 2 h, five washes with lysis buffer, Western blot; reciprocal
# JIP3 = molecular target: T2, JIP3; experiment: co-IP; sequential co-IP of SH3RF3, JIP3 and MKK7 in 293T cells
# [2] = molecular target: T1, SH3RF3 (SH3 domain containing ring finger 3); experiment: as above
# [3] = molecular target: T3, JIP3 in MCF10AT cells (human (endogenous in MCF10AT)); experiment: co-IP; MCF10AT cells; with or without SH3RF3 overexpression (JIP3 co-IPs); with or without JIP3 knockdown by two siRNAs (SH3RF3-JNK1/2 co-IP)
Molecule,binding [1],binding (JIP3),binding [2],binding [3]
JIP1 (from UniProt Q9UQF2 1-711),binds,,,
MAP kinase kinase 7 (MKK7) (from UniProt O14733 1-419) (enzyme),binds,binds,binds,
MKK7 in MCF10AT cells (from UniProt O14733 1-419) (enzyme),,,,binds
JNK2 in MCF10AT cells (from UniProt P45984 1-424) (enzyme),,,,binds
"MAP kinase kinase 4 (MKK4) (enzyme, UniProt P45985 1-399) MAAPSPSGGGGSGGGSGSGTPGPVGSPAPGHPAVSSMQGKRKALKLNFANPPFKSTARFTLNPNPTGVQNPHIERLRTHSIESSGKLKISPEQHWDFTAEDLKDLGEIGRGAYGSVNKMVHKPSGQIMAVKRIRSTVDEKEQKQLLMDLDVVMRSSDCPYIVQFYGALFREGDCWICMELMSTSFDKFYKYVYSVLDDVIPEEILGKITLATVKALNHLKENLKIIHRDIKPSNILLDRSGNIKLCDFGISGQLVDSIAKTRDAGCRPYMAPERIDPSASRQGYDVRSDVWSLGITLYELATGRFPYPKWNSVFDQLTQVVKGDPPQLSNSEEREFSPSFINFVNLCLTKDESKRPKYKELLKHPFILMYEERAVEVACYVCKILDQMPATPSSPMYVD",binds,,,
"JIP2 (protein, UniProt Q13387 1-824) MADRAEMFSLSTFHSLSPPGCRPPQDISLEEFDDEDLSEITDDCGLGLSYDSDHCEKDSLSLGRSEQPHPICSFQDDFQEFEMIDDNEEEDDEDEEEEEEEEEGDGEGQEGGDPGSEAPAPGPLIPSPSVEEPHKHRPTTLRLTTLGAQDSLNNNGGFDLVRPASWQETALCSPAPEALRELPGPLPATDTGPGGAQSPVRPGCDCEGNRPAEPPAPGGTSPSSDPGIEADLRSRSSGGRGGRRSSQELSSPGSDSEDAGGARLGRMISSISETELELSSDGGSSSSGRSSHLTNSIEEASSPASEPEPPREPPRRPAFLPVGPDDTNSEYESGSESEPDLSEDADSPWLLSNLVSRMISEGSSPIRCPGQCLSPAPRPPGEPVSPAGGAAQDSQDPEAAAGPGGVELVDMETLCAPPPPAPAAPRPGPAQPGPCLFLSNPTRDTITPLWAAPGRAARPGRACSAACSEEEDEEDDEEEEDAEDSAGSPGGRGTGPSAPRDASLVYDAVKYTLVVDEHTQLELVSLRRCAGLGHDSEEDSGGEASEEEAGAALLGGGQVSGDTSPDSPDLTFSKKFLNVFVNSTSRSSSTESFGLFSCLVNGEEREQTHRAVFRFIPRHPDELELDVDDPVLVEAEEDDFWFRGFNMRTGERGVFPAFYAHAVPGPAKDLLGSKRSPCWVERFDVQFLGSVEVPCHQGNGILCAAMQKIATARKLTVHLRPPASCDLEISLRGVKLSLSGGGPEFQRCSHFFQMKNISFCGCHPRNSCYFGFITKHPLLSRFACHVFVSQESMRPVAQSVGRAFLEYYQEHLAYACPTEDIYLE",binds,,,
"JIP3 (protein, UniProt Q9UPT6 1-1336) MMEIQMDEGGGVVVYQDDYCSGSVMSERVSGLAGSIYREFERLIHCYDEEVVKELMPLVVNVLENLDSVLSENQEHEVELELLREDNEQLLTQYEREKALRRQAEEKFIEFEDALEQEKKELQIQVEHYEFQTRQLELKAKNYADQISRLEERESEMKKEYNALHQRHTEMIQTYVEHIERSKMQQVGGNSQTESSLPGRRKERPTSLNVFPLADGTVRAQIGGKLVPAGDHWHLSDLGQLQSSSSYQCPQDEMSESGQSSAAATPSTTGTKSNTPTSSVPSAAVTPLNESLQPLGDYGVGSKNSKRAREKRDSRNMEVQVTQEMRNVSIGMGSSDEWSDVQDIIDSTPELDMCPETRLDRTGSSPTQGIVNKAFGINTDSLYHELSTAGSEVIGDVDEGADLLGEFSVRDDFFGMGKEVGNLLLENSQLLETKNALNVVKNDLIAKVDQLSGEQEVLRGELEAAKQAKVKLENRIKELEEELKRVKSEAIIARREPKEEAEDVSSYLCTESDKIPMAQRRRFTRVEMARVLMERNQYKERLMELQEAVRWTEMIRASREHPSVQEKKKSTIWQFFSRLFSSSSSPPPAKRPYPSVNIHYKSPTTAGFSQRRNHAMCPISAGSRPLEFFPDDDCTSSARREQKREQYRQVREHVRNDDGRLQACGWSLPAKYKQLSPNGGQEDTRMKNVPVPVYCRPLVEKDPTMKLWCAAGVNLSGWRPNEDDAGNGVKPAPGRDPLTCDREGDGEPKSAHTSPEKKKAKELPEMDATSSRVWILTSTLTTSKVVIIDANQPGTVVDQFTVCNAHVLCISSIPAASDSDYPPGEMFLDSDVNPEDPGADGVLAGITLVGCATRCNVPRSNCSSRGDTPVLDKGQGEVATIANGKVNPSQSTEEATEATEVPDPGPSEPETATLRPGPLTEHVFTDPAPTPSSGPQPGSENGPEPDSSSTRPEPEPSGDPTGAGSSAAPTMWLGAQNGWLYVHSAVANWKKCLHSIKLKDSVLSLVHVKGRVLVALADGTLAIFHRGEDGQWDLSNYHLMDLGHPHHSIRCMAVVYDRVWCGYKNKVHVIQPKTMQIEKSFDAHPRRESQVRQLAWIGDGVWVSIRLDSTLRLYHAHTHQHLQDVDIEPYVSKMLGTGKLGFSFVRITALLVAGSRLWVGTGNGVVISIPLTETVVLHRGQLLGLRANKTSPTSGEGARPGGIIHVYGDDSSDRAASSFIPYCSMAQAQLCFHGHRDAVKFFVSVPGNVLATLNGSVLDSPAEGPGPAAPASEVEGQKLRNVLVLSGGEGYIDFRIGDGEDDETEEGAGDMSQVKPVLSKAERSHIIVWQVSYTPE",binds,,binds,
